Type in all cases: cell-based, human
Details in all cases: final concentration 10 μM, added days 35 to 40

The subject of assay [1] is motor neurons induced to differentiate from iPS cells derived from ALS patients (TDP-43-ALS) having a mutation in TDP-43. Kind of assay: LDH leakage ratio, TDP-43-ALS motor neurons. The procedure:
(§1) The leakage amount of LDH into the medium is an indicator of cytotoxicity. For measurement of the LDH leakage ratio, a commercially available kit (model “LDH Cytotoxicity Detection Kit”, Takara Bio Inc.) was used.
(§2) Here, ropinirole was added to the medium on days 35 to 40 from the start of the differentiation induction of each iPS cell. Here, it is assumed that days 35 to 40 from the start of differentiation induction correspond to the early stage of the ALS disease.
(§3) The improvement ratio (%) of the ALS phenotype was calculated by Equation (1).
(§4) [formula] [In Equation (1), A represents a measurement value of motor neurons induced to differentiate from iPS cells derived from ALS patients in the absence of ropinirole, and B represents a measurement value of motor neurons induced to differentiate from iPS cells derived from ALS patients in the presence of ropinirole, and C represents a measurement value of motor neurons induced to differentiate from iPS cells derived from healthy subjects in the absence of ropinirole.]
(§5) Subsequently, in the same manner as above, the efficacy in cases of administering lower concentrations of ropinirole was evaluated.
(§6) Each drug was added to the medium at a final concentration of 10 μM.
On the technique in general: LDH in the medium is a marker of cell lysis.

Assay [2] deals with motor neurons induced to differentiate from iPS cells derived from ALS patients (FUS-ALS) having a mutation in FUS. Kind of assay: Neurite length, FUS-ALS motor neurons (screening, Example I-8). As for the experimental part:
(§7) For each differentiation-induced motor neuron in Example I-1, the changes over time in the neurite length were measured. A Bio station CT (Nikon Corp.) was used to measure the neurite length over time. FIG. 1 is a graph showing measurement results of changes over time in the neurite length. The vertical axis represents neurite length (relative value), and the horizontal axis represents the number of days of culturing from the start of differentiation induction.
(§8) Using the differentiation-induced motor neurons in Example I-1, drugs which cause the ALS phenotype to be restored were screened from existing drug libraries with the neurite length, ectopic localization of FUS protein, stress granule formation, LDH leakage ratio, CV-caspase 3-positive ratio, phosphorylated TDP-43 protein inclusion formation, and the like as indices.
(§9) As a result of the screening, ropinirole was found as a promising therapeutic agent for ALS. Tables 5 and 6 show the improvement ratio (%) in the ALS phenotype due to adding ropinirole to the medium. Here, ropinirole was added to the medium on days 35 to 40 from the start of the differentiation induction of each iPS cell. […]
(§10) The improvement ratio (%) of the ALS phenotype was calculated by Equation (1). […]
(§11) Subsequently, in the same manner as above, the efficacy in cases of administering lower concentrations of ropinirole was evaluated. […]

Assay [3] has the same test system. Nature of the assay: LDH leakage ratio, FUS-ALS motor neurons. The procedure:
as §1, §2, §3, §4, §5, §6

The subject of assay [4] is motor neurons induced to differentiate from iPS cells derived from ALS patients (TDP-43-ALS) having a mutation in TDP-43. Nature of the assay: Neurite length, TDP-43-ALS motor neurons (screening, Example I-8). As for the experimental part:
as §7, §8, §9, §10, §11

In assay [5] the test system is motor neurons induced to differentiate from iPS cells derived from ALS patients (FUS-ALS) having a mutation in FUS. Nature of the assay: Stress granule formation (G3BP immunostaining), FUS-ALS motor neurons. As for the experimental part: On day 40 from the start of differentiation induction, the formation of stress granules was examined using each differentiation-induced motor neuron in Example I-1. The detection of stress granules was performed by immunostaining with G3BP, which is a marker of stress granules.
as §8
(§12) As a result of the screening, ropinirole was found as a promising therapeutic agent for ALS. Tables 5 and 6 show the improvement ratio (%) in the ALS phenotype due to adding ropinirole to the medium. Here, ropinirole was added to the medium on days 35 to 40 from the start of the differentiation induction of each iPS cell. Here, it is assumed that days 35 to 40 from the start of differentiation induction correspond to the early stage of the ALS disease.
as §3
(§13) [formula] […]
as §11

Assay [6] has as its system motor neurons induced to differentiate from iPS cells derived from ALS patients (TDP-43-ALS) having a mutation in TDP-43. Nature of the assay: Phosphorylated TDP-43 protein inclusion formation, TDP-43-ALS motor neurons.
Description: Therefore, on day 40 from the start of differentiation induction, each differentiation-induced motor neuron in Example I-1 was immunostained and the formation of phosphorylated TDP-43 protein inclusions was examined.
as §8, §12, §3, §13, §11

Assay [7] relates to motor neurons induced to differentiate from iPS cells derived from ALS patients (FUS-ALS) having a mutation in FUS. Kind of assay: Ectopic localization of FUS protein in the cytoplasm, FUS-ALS motor neurons.
Description: Therefore, on day 40 from the start of differentiation induction, each differentiation-induced motor neuron in Example I-1 was immunostained and the localization of FUS protein in the cytoplasm was examined.
as §8, §12, §3, §13, §11

In the case of `Nc1nc2ccc(OC(F)(F)F)cc2s1` [Riluzole], the “LDH leakage ratio improvement ratio” value in assay [1] is on record as −11.7%; in assay [3] it was 5.83%. Moreover, the “Neurite length improvement ratio” value in assay [2] was found to be 8.89%; in assay [4] it was 0.277%. Also, the “Stress granule formation improvement ratio” value in assay [5] was 9.38%. The “TDP-43 inclusion formation improvement ratio” value in assay [6] is reported as 10.3%. In addition, the “Ectopic localization of FUS protein improvement ratio” value in assay [7] is recorded as 6.83%.

(Values after patent US12678423B2, “Therapeutic agent for amyotrophic lateral sclerosis and composition for treatment” (KEIO UNIVERSITY, priority 2016, dated 2026).)
